PubChem BioAssay AID1159578, Peter MacCallum Cancer Centre, 2015
Screen: 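Genome-wide hunt for genes controlling movement of lymphatic endothelial cells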 (primary screen). System: human lymphatic endothelial cells. Knock-down reagent: siRNA pool against human genes, 40 nM. Duration: 48 h after transfection. Measurement: 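High-content imaging of dye-stained cells in a scratch assay measures filled wound area and nuclei per well; duplicate means given as ratio to mock and robust z-score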. Direction: migration robust z-score: higher = faster migration into the scratch; nuclei per well: higher = more cells in the well. Active means: 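Migration changed when robust z exceeds 2 or falls below -2 and mean nuclei number is at least 3300; otherwise not called changed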. Meaning of the calls: active = migration changed; inactive = no migration change, or too few cells.
In all, the deposit lists about 18,000 reagents; shown is a part drawn at random. Of all reagents, about 1,030 (5.7%) are marked active. 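Inactive calls also include pools with fewer than 3300 nuclei, whose migration was not assessed.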 Raw values vary from plate to plate and are shown uncorrected. Further read-outs or replicates are left out here.

target gene	migration robust z-score	nuclei per well, duplicate mean	call
P2RX5	-0.98	3880	inactive
UBL7	-4.01	2244	inactive
VEGFD	-0.86	5202	inactive
CTNND1	-0.58	6426	inactive
PSD	-0.32	4732	inactive
CHRNG	0.36	5866	inactive
ANKRD28	0.71	5214	inactive
IL7R	0.83	4799	inactive
DLEU7	-0.82	6335	inactive
AJM1	-0.72	5842	inactive
ALDH4A1	0.32	6942	inactive
TRPV3	1.48	4953	inactive
VGF	-0.05	5121	inactive
KCNN4	0.54	5445	inactive
OXR1	0.24	6584	inactive
CRY2	-0.86	3681	inactive
PRSS36	-0.68	6089	inactive
FOLH1	0.36	5036	inactive
SUPV3L1	1.09	6112	inactive
RAB15	0.2	4700	inactive
ECHDC3	-0.39	5116	inactive
PARP11	2.96	5626	active
FCER1A	1.06	5442	inactive
PRMT3	0.21	6344	inactive
DEFB105B	-0.48	5958	inactive
RTN4R	-0.88	4626	inactive
SLC25A35	0.97	5921	inactive
ADAM2	-0.02	5412	inactive
CDT1	1.6	5250	inactive
CCDC9	0.41	5340	inactive
SLC6A19	0.57	5710	inactive
OR4F17	-0.04	7012	inactive

The list goes on (10 carried over from the part before).
target gene	migration robust z-score	nuclei per well, duplicate mean	call
FCER1A	1.06	5442	inactive
PRMT3	0.21	6344	inactive
DEFB105B	-0.48	5958	inactive
RTN4R	-0.88	4626	inactive
SLC25A35	0.97	5921	inactive
ADAM2	-0.02	5412	inactive
CDT1	1.6	5250	inactive
CCDC9	0.41	5340	inactive
SLC6A19	0.57	5710	inactive
OR4F17	-0.04	7012	inactive
LAP3	-1.22	5492	inactive
DNTT	0.29	5592	inactive
BET1	-0.04	4989	inactive
TIMM23B	-1.13	4554	inactive
REXO4	-0.03	4512	inactive
MAP3K20	-0.13	5812	inactive
TNFRSF8	-2.31	5400	active
ANKS3	0.04	5578	inactive
SULT1A4	-0.34	5962	inactive
PABPC1L2B	2.69	5472	active
NLRP4	0.74	5324	inactive
MPC1	1.77	4835	inactive
MAF	0.18	4458	inactive
DYRK1B	-0.16	4986	inactive
PKIB	0.29	4464	inactive
LIN28B	1.12	5972	inactive
ARLN	-0.47	3647	inactive
GABRB2	-1.87	4249	inactive
GGCX	-0.31	6174	inactive
TLR7	-0.31	6487	inactive
XKR8	-0.58	6271	inactive
KCNMB2	-0.16	4798	inactive
SLC1A1	0.94	5424	inactive
CDK3	-0.42	5650	inactive
ZNF418	1.87	7552	inactive
GNG3	-0.04	5119	inactive
AOC1	-1.14	3943	inactive
EP300	0.03	4994	inactive
PAK6	-0.91	3654	inactive
GKAP1	-0.83	7550	inactive
GPRC6A	-1.02	4554	inactive
DCAF4	-1.73	4868	inactive
CASQ1	1.36	5990	inactive
PYDC2	-1.98	3274	inactive
ADAMTS16	-0.08	5592	inactive
DUS1L	2.66	5740	active
SHISA2	0.54	5206	inactive
SCAMP4	-0.64	5430	inactive
ANP32A	1.7	5044	inactive
CCR6	-0.13	4410	inactive
CILK1	0.16	5299	inactive
